Data published in patent publication US7657380.
Results are given in words; binding and its absence hold for the method and conditions named. Some results given as binding are weak or reduced against the parent protein; the word gives no strength.

Target: EGFR extracellular domain (R&D Systems) (UniProt P00533)
Experiment: SPR, Fab over EGFR on CM5 chip

binding: binds
B1: ICR62 L2/H9 Fab (Fab, V domains shown)
VH: QVQLQQSGPGLVKPGASVKVSCKGSGFTFTDYKIHWVRQAPGKSLEWMGYFNPNSGYSTYNEKFQGRVTITADKSTDTAYMELSSLRSEDTAVYYCTRLSPGGYYVMDAWGQGTLVTVSS
VL: DIQMTQSPSSLSASVGDRVTITCRASQNINNYLNWYQQKPGKAPKRLIYNTNNLQTGIPSRFSGSGSGTDYTLTISSLQPEDFATYFCLQHNSFPTFGAGTKLEIK
